Each structure is given as a SMILES string. Structures can show the parent of a compound that is named as a salt. The list shows a part of the results. Single values are uncertain here, since repeats match poorly.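 Wells held roughly 40 S. mansoni schistosomula, imaged in bright field over time against wells given 0.1% DMSO. The paper defines hits as drugs with a Mahalanobis distance of at least 2.47, three standard deviations above the DMSO control mean. Degeneracy is the proportion of worms classified as opaque.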

In the assay the test system is Schistosoma mansoni schistosomula. The experiment in a line: degeneracy (percent of somules classified as degenerate/opaque); higher = more parasite degeneration/death; extreme values may be limits of the assay. The conditions noted are these: 10 µM; 72 h.
As to `CCCCNc1ccc(C(=O)OCCN(C)C)cc1` [Tetracaine], the degeneracy was 17.9%.
With `CN1CCOC(c2ccccc2)c2ccccc2C1` (stereo not given) [Nefopam] the figure was 2.38%; with `CN1CCC(=C2c3ccccc3CCc3sccc32)CC1` [Pizotyline Malate], 12.5%; with `O=C(O)COCCN1CCN([C@H](c2ccccc2)c2ccc(Cl)cc2)CC1` [Levocetirizine Dihydrochloride], 7.41%.
Under `O=C1[C@H](CC[C@H](O)c2ccc(F)cc2)[C@@H](c2ccc(O)cc2)N1c1ccc(F)cc1` [Ezetimibe] stands 88.9%.
With `O=S(=O)(O)c1cc(I)c(O)c2ncccc12` [Chiniofon] the figure was 2.27%.
With `CC(O)(P(=O)(O)O)P(=O)(O)O` [Etidronate Disodium], the degeneracy came out at 2.86%.
With `OCc1ccccn1` [Piconol] the figure was 8.11%; with `COc1ccc(CN2CCN(C(c3ccc(F)cc3)c3ccc(F)cc3)CC2)c(OC)c1OC` [lomerizine], 47.8%; with `COc1ccc(C(=O)c2ccccc2O)c(O)c1` [Dioxybenzone], 100%.
The compound `CC1CCCC(C)N1` (stereo not given) [Nanofin] displayed a degeneracy of 0%.
With `Cc1cnc(C(=O)O)c[n+]1[O-]` [Acipimox] the figure was 5.88%; with `CC(=O)Nc1cccc(O)c1` [3-acetamidophenol], 0%.
With `O=C(O)C1(C(=O)O)CCC1.[NH2-].[NH2-].[Pt+2]` [Carboplatin] the figure was 12.2%; with `CN[C@@H]1[C@H](O[C@H]2[C@H](O[C@H]3[C@H](O)[C@@H](O)[C@H](NC(=N)N)[C@@H](O)[C@@H]3NC(=N)N)O[C@@H](C)[C@]2(O)CO)O[C@@H](CO)[C@H](O)[C@H]1O` [Dihydrostreptomycin Sulfate], 29.2%; with `NCc1ccc(S(N)(=O)=O)cc1` [Mafenide Hydrochloride], 1.75%.
Under `CC/C(=C(\c1ccccc1)c1ccc(OCCN(C)C)cc1)c1ccccc1` [tamoxifen] stands 100%.
In turn, `C=C(c1ccc(C(=O)O)cc1)c1cc2c(cc1C)C(C)(C)CCC2(C)C` [Bexarotene] displayed a degeneracy of 4.65%.
Under `C#C[C@]1(O)CC[C@H]2[C@@H]3CCC4=C(CCC(=O)C4)[C@H]3CC[C@@]21C` [Norethynodrel] stands 13%; under `CC(C)(C)NCC(O)c1cc(O)cc(O)c1` (stereo not given) [Terbutaline], 3.03%; under `CCOc1ccc(NC(C)=O)cc1` [Phenacetin], 2.56%.
Under `COc1cc2ncnc(Nc3ccc(F)c(Cl)c3)c2cc1OCCCN1CCOCC1` [Gefitinib] stands 100%; under `CCCCC[C@H](O)/C=C/[C@H]1[C@H](O)CC(=O)[C@@H]1CCCCCCC(=O)O` [Alprostadil], 6.25%.
With `CC(=O)Nc1ccc(C(=O)O)cc1` [Acedoben] the figure was 7.69%; with `O=C(O)c1ccccc1` [Benzoic Acid], 19.4%.
